Measured values published in paper PMC6787082.

The chains behind the UniProt entries cited, without tags or fusion partners. Where a name states a change or a piece, a line headed by the entry shows the natural chain unless it says otherwise.
UniProt P0CAW2: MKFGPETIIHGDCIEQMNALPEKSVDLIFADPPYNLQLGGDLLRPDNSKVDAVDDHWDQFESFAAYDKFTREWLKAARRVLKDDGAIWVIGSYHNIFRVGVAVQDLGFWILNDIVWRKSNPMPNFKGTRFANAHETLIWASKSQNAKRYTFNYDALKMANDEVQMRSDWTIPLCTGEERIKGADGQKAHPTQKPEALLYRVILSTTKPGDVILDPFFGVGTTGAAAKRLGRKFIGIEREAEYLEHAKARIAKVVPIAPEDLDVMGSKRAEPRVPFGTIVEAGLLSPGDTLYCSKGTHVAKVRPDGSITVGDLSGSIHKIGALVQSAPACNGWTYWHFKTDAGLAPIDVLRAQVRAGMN

Biological target: CcrM (Caulobacter crescentus) (UniProt P0CAW2)
Test: X-ray crystallography (crystals, 3.0 A)
Details: sinefungin; Co-crystallization: protein stock in 20 mM HEPES pH 8.0, 300 mM NaCl, 5% glycerol, 0.5 mM TCEP; ~1:1 monomer:duplex (~56 uM), 5x sinefungin; well 0.1 M HEPES pH 7.8; recombinant protein; residues 1-358; protein details: N-terminal His-tag

CGTATCAATGAATCCCAAG / GCTTGGGATTCATTGATAC [GAATC duplex, CGTATC flank]
binding result: binds

The exact form of at least one protein or probe is not confirmed. At least one verdict was read from the data and is not stated in words by the source.
